According to PubChem BioAssay AID1671190 (National Center for Advancing Translational Sciences (NCATS), 2021):
The whole screen tested about 580,000 compounds, of which about 6,100 (1.1%) were called active. The inconclusive results got no clear call from the source; some entries with a clear call stand among them for comparison. Calls follow the shape of the dose curve; as a rule, active = well fitted inhibition curve with a large enough effect; inconclusive = small, poorly fitted or top-dose-only effect, or another doubt; inactive = no such curve, though single readings can be large or run the other way. Potencies beside an inconclusive call are fits to weak or partial responses and may not hold up.

The chains behind the UniProt entries cited, without tags or fusion partners. Where a name states a change or a piece, a line headed by the entry shows the natural chain unless it says otherwise.
UniProt P18054: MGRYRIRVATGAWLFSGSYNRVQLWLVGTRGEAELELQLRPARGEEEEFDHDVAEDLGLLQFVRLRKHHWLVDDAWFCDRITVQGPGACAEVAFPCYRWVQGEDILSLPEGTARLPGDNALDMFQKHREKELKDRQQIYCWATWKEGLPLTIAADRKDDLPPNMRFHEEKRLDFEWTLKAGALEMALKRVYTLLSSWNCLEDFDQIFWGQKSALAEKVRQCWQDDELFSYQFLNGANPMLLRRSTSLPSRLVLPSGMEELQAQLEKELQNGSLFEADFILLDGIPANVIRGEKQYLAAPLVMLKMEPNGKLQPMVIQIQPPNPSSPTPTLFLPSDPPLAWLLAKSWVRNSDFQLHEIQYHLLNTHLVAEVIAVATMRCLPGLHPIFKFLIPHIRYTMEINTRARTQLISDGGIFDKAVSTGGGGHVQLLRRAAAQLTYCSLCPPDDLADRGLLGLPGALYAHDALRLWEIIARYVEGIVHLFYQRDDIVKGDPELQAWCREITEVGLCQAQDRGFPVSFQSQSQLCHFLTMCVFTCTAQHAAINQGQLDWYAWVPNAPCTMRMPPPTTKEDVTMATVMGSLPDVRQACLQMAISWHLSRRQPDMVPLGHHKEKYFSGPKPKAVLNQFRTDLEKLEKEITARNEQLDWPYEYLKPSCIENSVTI

target: Polyunsaturated fatty acid lipoxygenase ALOX12 (Homo sapiens) (UniProt P18054); assay: Primary qHTS assay for inhibitors of human arachidonate 12S-lipoxygenase (ALOX12): Round 2; details: purified 12hLO, xylenol orange hydroperoxide absorbance; activity change, negative = inhibition: at 108 µM (top of the series) unless noted
Method in brief: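 Hydroperoxide product was detected by ferrous iron/xylenol orange as the 573 to 405 nm absorbance ratio. Arachidonic acid at 40 uM (final) was turned over for 30 min at room temperature by 150 nM human 12hLO, pH 7.0 Hepes buffer, after 15 min compound preincubation.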
% is scaled to controls: 0 for no effect and ±100 for the full control effect; potency is read from the fitted curve at half-maximal effect.

SMILES	Potency	activity change, negative = inhibition
COc1ccc(N(CC(=O)NC2CC3CCC2C3)S(=O)(=O)c2ccccc2)cc1OC (stereo unspecified)	inconclusive: 112 µM [inhibitor, partial curve, poor fit]	
COc1ccc(C(=O)Nc2ccc(NC(=O)c3cccs3)cn2)cc1	inconclusive: 50.1 µM [inhibitor, partial curve, poor fit]	
Cc1cccc(C(=O)Nc2ccccc2C(=O)NCc2ccccc2)n1	inconclusive: 100 µM [inhibitor, single point]	
Cc1ccc(NC(=S)NCc2ccc(Cl)cc2)c(OC(F)F)c1	inconclusive: 44.7 µM [inhibitor, partial curve, poor fit]	
COc1ccc(C(=S)N2CCCCCC2)cc1	inconclusive: 50.1 µM [inhibitor, partial curve, poor fit]	
COc1cc(OC)c(NC(=O)Cc2c(C(=O)O)c(C)cn2C)cc1Cl	inconclusive: 141 µM [inhibitor, partial curve, poor fit]	
COc1cc(OC)cc(C(=O)NC(=S)NCc2ccco2)c1	inconclusive: 25.1 µM [inhibitor, single point]	
Nc1cc(C(=O)O)c(Oc2ccc(Cl)cc2Cl)cc1C(=O)O	inconclusive: 89.1 µM [inhibitor, partial curve, poor fit]	
COc1ccc(OC2CCN(S(=O)(=O)c3cccc(F)c3)CC2)cc1		inactive: -4.06%
CCCCn1c(=O)c2oc3ccccc3c2n(CC(=O)Nc2cc(C)ccc2C)c1=O	inconclusive: 112 µM [inhibitor, partial curve, poor fit]	
Cc1occc1-c1nnc(SCc2cc(-c3cccs3)on2)o1	inconclusive: 35.5 µM [inhibitor, partial curve, poor fit]	
O=C(NCCN1CCOCC1)c1ccc2nccn2c1	inconclusive: 28.2 µM [inhibitor, full curve, poor fit]	
Cc1c(C(=O)N2CCCCC2)c(S(=O)(=O)N2c3ccccc3CC2C)c(C)n1C (stereo unspecified)	inconclusive: 44.7 µM [inhibitor, partial curve, poor fit]	
COc1ccc(-c2nc(/C=C/C(=O)NC(C)C3CC4CCC3C4)cs2)cc1 (stereo unspecified)		inactive: -31.3%
Cc1ccc(C(O)CNC(=O)Nc2c(C)cc(C)cc2C)cc1 (stereo unspecified)		inactive: 3.01%
CC1=CC(C)(C)N=C(Nc2nc(C)c3cc(C)cc(C)c3n2)N1	inconclusive: 79.4 µM [inhibitor, partial curve, poor fit]	
CC(C)Oc1ccc(C(=O)NC2CCN(c3cn[nH]c(=O)c3)CC2)cc1		inactive: 30.9%
COC(=O)/C=C\c1cc(O)ccc1O	inconclusive: 1.78 µM [inhibitor, full curve, poor fit]	
CC(=O)Nc1ccc(-c2csc(NCc3ccco3)n2)cc1	inconclusive: 7.08 µM [inhibitor, full curve, poor fit]	
CC1Oc2ccccc2C=C1/C=C/C(=O)c1cccc(O)c1 (stereo unspecified)	inconclusive: 15.8 µM [inhibitor, partial curve, poor fit]	
COc1ccc(N2CC(C(=O)Nc3nnc(SCC(=O)N4CCCC4)s3)CC2=O)cc1 (stereo unspecified)	inconclusive: 6.31 µM [inhibitor, partial curve, poor fit]	
COc1ccc(NS(=O)(=O)c2cccc(C(=O)OCC(=O)c3c(N)n(C)c(=O)n(C)c3=O)c2)cc1	inconclusive: 126 µM [inhibitor, single point]	

SMILES	Potency	activity change, negative = inhibition
COc1cccc(Nc2nc(-c3ccccc3)no2)c1	active: 39.8 µM	
O=c1cc(CCl)nc2scc(-c3ccccc3)n12	inconclusive: 14.1 µM [inhibitor, full curve, poor fit]	
CSc1nnnn1-c1c(C)n(C)n(-c2ccccc2)c1=O	inconclusive: 44.7 µM [inhibitor, partial curve, poor fit]	
Cc1nn(CC(=O)Nc2nc3ccc(F)cc3s2)c(=O)c2ccccc12	inconclusive: 44.7 µM [inhibitor, partial curve, poor fit]	
C[C@H](NC(=O)c1nc[nH]c1C(=O)N1CCN(C(=O)OC(C)(C)C)CC1)C(=O)OCc1ccccc1		inactive: 5.26%
COc1cc2c(cc1OC)CN(C(=O)c1ccc(-c3ccccc3)cc1)CC2	inconclusive: 44.7 µM [inhibitor, partial curve, poor fit]	
O=C(COC(=O)c1cc(=O)c2ccccc2o1)Nc1ccc(F)c(F)c1		inactive: 1.68%
COCCCNC(=O)C(=O)NCC(c1ccco1)N1CCN(c2ccc(OC)cc2)CC1 (stereo unspecified)		inactive: 13.4%
O=C(CN1C(=O)c2ccccc2C1=O)Nc1cnc2ccccc2c1	inconclusive: 100 µM [inhibitor, single point]	
COc1ccc(NC(=S)Nc2cc(C(F)(F)F)ccc2F)cc1	inconclusive: 50.1 µM [inhibitor, partial curve, poor fit]	
COc1ccc(C(=O)Oc2ccc(C)cc2C(=O)/C=C/c2ccc(F)cc2)cc1		inactive: 21.3%
CC(C)Cn1c(-c2ccncc2)n[nH]c1=S	inconclusive: 70.8 µM [inhibitor, partial curve, poor fit]	
CC(O)(c1cccc(F)c1)c1nc(-c2cc3ccccc3o2)cs1 (stereo unspecified)	inconclusive: 50.1 µM [inhibitor, partial curve, poor fit]	
COc1cc2sc(-c3ccc(S(C)(=O)=O)cc3)c(C(=O)NCCCCO)c2cc1OC		inactive: -7.16%
CC1=CC(=NOC(=O)/C=C/c2ccccc2)C=C(C)C1=O		inactive: 1.79%
Cc1ccc2c(c1)C(C[C@H]1CN(C(=O)NC(C)C)CC[C@H]1CC(=O)O)=NCC2	inconclusive: 56.2 µM [inhibitor, full curve]	
CCOC(=O)N1CCN(C/C(C)=C/c2ccccc2)CC1	inconclusive: 0.251 µM [inhibitor, full curve, poor fit]	
CCCn1c(O)c(C=Nc2ccccc2)sc1=S	inconclusive: 20 µM [inhibitor, partial curve, poor fit]	
COC(=O)C(C#N)c1nc2ccccc2nc1N1CCN(Cc2ccccc2)CC1 (stereo unspecified)	inconclusive: 39.8 µM [inhibitor, partial curve, poor fit]	
C#CCN(C)C(=O)C[C@@H]1CCNC[C@@H]1Cc1cc(COc2ccccc2)on1		inactive: 8.99% [at 176 µM]
O=[S+]([O-])(c1ccccc1)N1CC(Oc2ccc3c(c2)OCO3)C1	inconclusive: 89.1 µM [inhibitor, partial curve]	
O=C(C1CCCC1)N1Cc2ccccc2CC2(CCN(Cc3ccncc3)C2)C1 (stereo unspecified)	inconclusive: 50.1 µM [inhibitor, full curve, poor fit]	

As entered above:
Potency with `O=C(CN1C(=O)c2ccccc2C1=O)Nc1cnc2ccccc2c1` is entered as inconclusive: 100 µM [inhibitor, single point]
Potency with `CSc1nnnn1-c1c(C)n(C)n(-c2ccccc2)c1=O` is entered as inconclusive: 44.7 µM [inhibitor, partial curve, poor fit]
Potency with `O=c1cc(CCl)nc2scc(-c3ccccc3)n12` is entered as inconclusive: 14.1 µM [inhibitor, full curve, poor fit]

Additional structures

SMILES	Potency	activity change, negative = inhibition
CCc1ccc(OCC(O)CN2CCN(c3ccc(OC)cc3)CC2)cc1 (stereo unspecified)	inconclusive: 35.5 µM [inhibitor, partial curve, poor fit]	
COc1ccc(CNC(=O)CN(c2ccc(C(C)=O)cc2)S(=O)(=O)c2ccc(C)cc2)cc1OC	inconclusive: 11.2 µM [inhibitor, partial curve, poor fit]	
O=C(CN1CCC2(CC1)OCCO2)Nc1cc(Cl)cc(Cl)c1		inactive: 11.6%
COc1cc(/C=C/c2ccccc2)cc(OC)c1	inconclusive: 112 µM [inhibitor, single point]	
O=S(Cc1ccc(Cl)cc1)Cc1cccc(C(F)(F)F)c1 (stereo unspecified)	inconclusive: 7.08 µM [inhibitor, full curve, poor fit]	
Cc1ccc(S(=O)(=O)N/N=C\c2cc3c(cc2[N+](=O)[O-])OCO3)cc1	inconclusive: 15.8 µM [inhibitor, full curve, poor fit]	
COc1cc(C(=O)NC(=S)NCc2ccncc2)cc(OC)c1OC	inconclusive: 35.5 µM [inhibitor, single point]	
O=[N+]([O-])c1ccc(Cl)c(/C=N/N2CCN(Cc3ccccc3Cl)CC2)c1		inactive: 0%
O=C(Nc1nnc(SCC(=O)N2CCOCC2)s1)C1CC(=O)N(c2ccccc2)C1 (stereo unspecified)		inactive: -9.97%
CCNC(=O)CN(CC)S(=O)(=O)c1cccc2cc(C)cnc12		inactive: 9.9%
CC(C)CCNC(=O)c1c[nH]c2ccc(S(=O)(=O)Nc3cccc(C(F)(F)F)c3)cc2c1=O		inconclusive: -36.5% [inhibitor]
CCOc1ccc2cc(C#N)c(SCC(=O)N3CCC(C)CC3)nc2c1		inactive: -8.65%
OCCNCCCCOc1ccc(F)cc1		inactive: 5.05%
CN(CC(=O)NC(=O)NCc1ccccc1)CC(=O)Nc1ccc(Cl)cc1	inconclusive: 89.1 µM [inhibitor, single point]	
CN1CCN(c2ncnc3ccc(-c4cccc(NS(C)(=O)=O)c4)cc23)CC1	inconclusive: 31.6 µM [inhibitor, partial curve]	
O=c1cc(CN2CCN(c3cccc(Cl)c3)CC2)c2cc(Cl)ccc2o1		inactive: 4.64%
CCN1CNC(=S)N(C(C)c2ccccc2)C1 (stereo unspecified)		inactive: -22.9%
CCOc1ccc(CCN2C(=S)N([C@@H](Cc3ccccc3)CN3CCCC3CN3C(=S)NC[C@@H]3Cc3ccccc3)C[C@@H]2Cc2ccc(O)cc2)cc1 (stereo partly specified)	inconclusive: 35.5 µM [inhibitor, partial curve, poor fit]	
C=C(C)C1Cc2c(C)nn(-c3nc(C)cc(C)n3)c2C1 (stereo unspecified)	inconclusive: 35.5 µM [inhibitor, partial curve, poor fit]	
C/C(=N\NC(=S)Nc1ccc(F)cc1)C1CC1	inconclusive: 50.1 µM [inhibitor, partial curve, poor fit]	
CCOc1c(Cl)cc(C(=O)NC(C)Cn2cccn2)cc1OC (stereo unspecified)	inconclusive: 2.82 µM [inhibitor, full curve, poor fit]	
O=C(CCC1CCCC1)N1CCN(CC2CC=CCC2)CC1 (stereo unspecified)	inconclusive: 0.398 µM [inhibitor, full curve, poor fit]	
